According to paper PMC7181604, “Arabidopsis FHY3 and FAR1 integrate light and strigolactone signaling to regulate branching”:

Legend:
[1] = target: T1, GST-SPL9SBP (Arabidopsis thaliana) (UniProt Q700W2); experiment: EMSA; conditions: plus His-FHY3-I (MBP control has no effect); Beyotime EMSA kit, manufacturer's protocol (binding buffer not stated); proteins stored in 5 mM Tris-Cl pH 8.0, 50 mM KCl; recombinant protein; protein details: GST (N-terminal, pGEX-4T-1); label: biotin
T1 sequence (looked up, limits assumed): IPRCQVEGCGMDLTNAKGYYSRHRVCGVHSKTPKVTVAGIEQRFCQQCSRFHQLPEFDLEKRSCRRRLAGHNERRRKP

[2] = target: T2, GST-SPL15SBP (Arabidopsis thaliana) (UniProt Q9M2Q6); experiment: EMSA; conditions: plus His-FHY3-I (MBP control has no effect); Beyotime EMSA kit, manufacturer's protocol (binding buffer not stated); proteins stored in 5 mM Tris-Cl pH 8.0, 50 mM KCl; recombinant protein; protein details: GST (N-terminal, pGEX-4T-1); label: biotin
T2 sequence (looked up, limits assumed): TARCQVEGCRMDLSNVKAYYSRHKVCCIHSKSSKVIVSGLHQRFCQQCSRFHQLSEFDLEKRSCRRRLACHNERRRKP

“GAAGAAGCCAGCGAGTCCAACCATTATAGTCATGTGGTCCTCCTGATAATTGCAGGCCTA (double strand) [BRC1 promoter EMSA probe (PB01/PB02)]”: binds more weakly [1]; binds more weakly [2].

For at least one entry, the source does not settle the construct or the ends of the probe. A weaker result is weaker than the reference pair of the same experiment. Tags and fusion partners may be left off the protein sequences shown.
